In publication PMC2742731 one finds binding data, which are given here for 2 molecules.

No constants are given. Whether binding was seen depends on the method and setting. Some binding calls cover weakened binding; strength is not graded here. Tags and fused reporters may be left off the sequences shown.

Test [1] concerns the target T1, SYP-3 full length fused to the DNA binding domain (DB) of GAL4 (C. elegans) (UniProt O62238).
T1 sequence: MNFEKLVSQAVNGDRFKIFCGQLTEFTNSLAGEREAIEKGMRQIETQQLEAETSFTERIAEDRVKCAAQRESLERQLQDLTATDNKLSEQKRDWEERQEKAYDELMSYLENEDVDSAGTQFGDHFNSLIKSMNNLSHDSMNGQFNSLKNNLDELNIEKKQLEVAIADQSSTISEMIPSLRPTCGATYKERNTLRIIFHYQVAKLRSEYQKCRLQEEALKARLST
The test is described as follows: two-hybrid; library screen: SYP-1, SYP-2 and SYP-3 full-length constructs and N- and C-terminal truncations as baits; cDNA library from mixed-stage worms (SYP-1 and SYP-2 baits also on an ORFeome library).

In test [2] the target is T1, SYP-3 full length fused to the DNA binding domain (DB) of GAL4 (C. elegans). The test is described as follows: two-hybrid; direct test: SYP-1, SYP-2, SYP-3 full length, ΔN and ΔC fused to GAL4 DB, SYP-4 full length fused to GAL4 AD; β-galactosidase activity (X-Gal) and growth on 20 mM 3-AT plates.

B1: SYP-4 (prey found in the yeast two-hybrid library screen) (protein, UniProt Q9N5K3 1-605)
chain: MSFPTLQVRPNEKNPKVLRCHEFLRQSNQLVERNMINTEGRKMLAKLLTKMVSEAKGIYALDERRAELAKSGKLQEKLKSAYQTSLTVMEDRLHIAELSRQVQEKKLTVQQKYYECDDLRKSVQETNTEARRVQEINEQRLVDTTRATEELIVKSASILKNLENSSDVHKLRAMEEEKRILEEVVEGLRDQKKCLADDIRTKKATLKAESKKSFEKTVIECAKHYKLHQSLMPKLDKSKRSLETLKDEEENRRICGSLSLDETMQFDRSFILASMDKTNKPEKAVQQLTSKSSEVSITPQISETAKSSFSKEPIPTQHPMEVGEEPVIEHSAEESVHIEPPNVTEIREVVPQITIQPTRQDSVVQRDAEELDTSAVPSPQPESILDEPEEEEEELSNHENHADQSMDVMEVDQEVPEESPMEVGEQEEIEQPSVFKDILATEQAALSQEQEPEIVEKQADNDVQFVDDQQVGAQLDVEDEEEVMSENGSNKSNNFSFNFFGNSKGTSAGEGGGEGNFDFNFDGIGAGDDGSNNGGSTGDLDFLNYDGEDEGKGSGNTQSDPFGFASNGNAAGGGGDGSFNFNFDGDGEGGATSGAGGNSTSFFNF
As for B1, in test [1], the binding result was “binds”.

B2: SYP-4 full length fused to the activation domain (AD) of GAL4 (protein, UniProt Q9N5K3 1-605)
chain: B1 chain
Regarding B2, in test [2], the binding result is “binds”.
